Values of other authors, collected in paper PMC9246766 (Pharmaceutical research, 2022).

Conditions: total maximum plasma concentration; ref http://www.micromedexsolutions.com/; cited from earlier work

In the case of `CCCNCC(O)COc1ccccc1C(=O)CCc1ccccc1` (stereo not shown) [propafenone], the Cmax is listed as 7.9 µM.
